The supplement of paper PMC12823440, “Inhibitors supercharge kinase turnover through native proteolytic circuits” (Nature, 2025)
The other results are listed elsewhere or left out. The calls rarely recur for the same compound in another form.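 Kinases were expressed as nanoluciferase fusions in K562 cells and luminescence was read every 4 h between 2 and 18 h as percent of control, DMSO set to 100% and a positive control to 0%. A time point counts as decreased when the signal drops significantly (2 sigma). The hit call is the authors' own, does not follow from the count of time points alone, and its rule is not shown.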

Amino acid sequences for entries named in this document (tags omitted). A change or cut given only in a name is not applied to a line headed by its entry.
UniProt Q92630: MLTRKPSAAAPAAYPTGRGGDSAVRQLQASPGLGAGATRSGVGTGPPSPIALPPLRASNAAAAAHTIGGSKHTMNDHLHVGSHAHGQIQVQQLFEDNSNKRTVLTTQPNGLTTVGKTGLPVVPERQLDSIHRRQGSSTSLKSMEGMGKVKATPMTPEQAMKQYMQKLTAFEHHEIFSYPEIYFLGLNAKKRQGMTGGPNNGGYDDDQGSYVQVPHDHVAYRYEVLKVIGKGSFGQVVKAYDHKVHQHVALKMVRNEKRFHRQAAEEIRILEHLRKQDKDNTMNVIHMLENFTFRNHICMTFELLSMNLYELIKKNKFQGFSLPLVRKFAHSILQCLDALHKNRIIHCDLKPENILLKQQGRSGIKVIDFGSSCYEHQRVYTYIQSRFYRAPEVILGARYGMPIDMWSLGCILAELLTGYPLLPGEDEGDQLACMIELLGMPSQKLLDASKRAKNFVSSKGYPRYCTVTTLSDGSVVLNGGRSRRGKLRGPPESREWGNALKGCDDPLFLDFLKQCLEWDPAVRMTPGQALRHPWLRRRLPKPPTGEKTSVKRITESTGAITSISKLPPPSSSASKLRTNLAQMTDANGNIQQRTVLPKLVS
UniProt O96013: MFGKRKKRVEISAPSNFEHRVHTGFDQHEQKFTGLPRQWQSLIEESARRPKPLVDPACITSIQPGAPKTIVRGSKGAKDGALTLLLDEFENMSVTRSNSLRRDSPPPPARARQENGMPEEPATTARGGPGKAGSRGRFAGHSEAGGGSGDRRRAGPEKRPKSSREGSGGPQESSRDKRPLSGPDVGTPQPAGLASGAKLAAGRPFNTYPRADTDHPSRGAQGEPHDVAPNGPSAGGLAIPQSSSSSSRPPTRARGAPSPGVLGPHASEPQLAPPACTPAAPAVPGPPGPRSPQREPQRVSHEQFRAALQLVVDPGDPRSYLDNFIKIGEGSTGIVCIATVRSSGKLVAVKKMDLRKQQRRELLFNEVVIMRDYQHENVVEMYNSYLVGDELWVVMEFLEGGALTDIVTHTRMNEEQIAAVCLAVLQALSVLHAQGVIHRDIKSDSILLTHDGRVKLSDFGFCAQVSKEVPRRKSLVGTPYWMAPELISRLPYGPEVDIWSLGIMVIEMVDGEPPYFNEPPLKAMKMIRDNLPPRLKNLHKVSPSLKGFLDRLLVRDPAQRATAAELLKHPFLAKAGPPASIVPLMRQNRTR
UniProt P48730: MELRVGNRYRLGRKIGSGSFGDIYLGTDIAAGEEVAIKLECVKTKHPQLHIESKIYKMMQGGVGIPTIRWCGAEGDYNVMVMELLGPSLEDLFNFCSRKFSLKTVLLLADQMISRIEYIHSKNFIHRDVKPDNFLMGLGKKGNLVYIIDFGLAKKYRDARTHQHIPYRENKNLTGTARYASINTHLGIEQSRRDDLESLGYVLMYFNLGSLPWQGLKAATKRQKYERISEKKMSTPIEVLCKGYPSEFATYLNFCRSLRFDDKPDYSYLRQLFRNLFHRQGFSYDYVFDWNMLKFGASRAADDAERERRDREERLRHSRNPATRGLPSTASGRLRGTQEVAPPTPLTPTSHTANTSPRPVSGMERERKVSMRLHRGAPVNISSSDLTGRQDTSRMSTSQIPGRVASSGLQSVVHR
UniProt P49137, whole entry, looked up: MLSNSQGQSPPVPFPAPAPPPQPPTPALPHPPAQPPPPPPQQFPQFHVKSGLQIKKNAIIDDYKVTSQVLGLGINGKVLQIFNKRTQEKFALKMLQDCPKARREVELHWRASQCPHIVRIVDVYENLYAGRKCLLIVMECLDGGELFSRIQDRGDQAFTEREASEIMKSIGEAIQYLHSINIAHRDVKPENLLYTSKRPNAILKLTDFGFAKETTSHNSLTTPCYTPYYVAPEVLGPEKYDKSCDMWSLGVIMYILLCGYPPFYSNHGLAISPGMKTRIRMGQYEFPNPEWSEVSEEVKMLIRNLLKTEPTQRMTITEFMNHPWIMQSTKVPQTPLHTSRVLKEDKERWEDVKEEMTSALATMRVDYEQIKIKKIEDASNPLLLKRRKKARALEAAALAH

Legend:
Assay in all cases: number of time points (of 5) at which kinase-Nluc abundance scored as decreased, DMSO-normalised (count); higher = more persistent destabilization
Umbralisib = compound: CC(C)Oc1ccc(-c2nn([C@@H](C)c3oc4ccc(F)cc4c(=O)c3-c3cccc(F)c3)c3ncnc(N)c23)cc1F [Umbralisib]; details: 2.5 µM; K562; 2-18 h
Bucladesine (calcium) = compound: CCCC(=O)Nc1ncnc2c1ncn2[C@@H]1O[C@@H]2COP(=O)(O)O[C@H]2[C@H]1OC(=O)CCC [Bucladesine (calcium)]; details: 10 µM; K562; 2-18 h
Bucladesine (sodium) = compound: CCCC(=O)Nc1ncnc2c1ncn2[C@@H]1O[C@@H]2COP(=O)(O)O[C@H]2[C@H]1OC(=O)CCC [Bucladesine (sodium)]; details: 10 µM; K562; 2-18 h
[1] = compound: CCCCCCCCc1ccc(CCC(N)(CO)CO)cc1 [Fingolimod (hydrochloride)]; details: 2.5 µM; K562; 2-18 h
Fingolimod = compound: CCCCCCCCc1ccc(CCC(N)(CO)CO)cc1 [Fingolimod]; details: 2.5 µM; K562; 2-18 h
[2] = compound: CCN(CC)CC(=O)Nc1c(C)cccc1C [Lidocaine (hydrochloride)]; details: 10 µM; K562; 2-18 h
Lidocaine = compound: CCN(CC)CC(=O)Nc1c(C)cccc1C [Lidocaine]; details: 10 µM; K562; 2-18 h
[3] = compound: CCN(CC)Cc1ccc(OC)c(-c2cc3c(-c4ccc(C(=O)O)c(C(C)C)c4)ccnc3[nH]2)c1; details: K562, 2-18 h
Baricitinib (phosphate) = compound: CCS(=O)(=O)N1CC(CC#N)(n2cc(-c3ncnc4[nH]ccc34)cn2)C1 [Baricitinib (phosphate)]; details: 10 µM; K562; 2-18 h
Baricitinib = compound: CCS(=O)(=O)N1CC(CC#N)(n2cc(-c3ncnc4[nH]ccc34)cn2)C1 [Baricitinib]; details: 10 µM; K562; 2-18 h
[4] = compound: CCS(=O)(=O)N1CCN(c2ccc(Nc3ncc(C(N)=O)c(NC4CC4)n3)cc2)CC1 [Cerdulatinib (hydrochloride)]; details: 10 µM; K562; 2-18 h
Cerdulatinib = compound: CCS(=O)(=O)N1CCN(c2ccc(Nc3ncc(C(N)=O)c(NC4CC4)n3)cc2)CC1 [Cerdulatinib]; details: 10 µM; K562; 2-18 h
[5] = compound: CCc1nc(C(N)=O)c(Nc2ccc(N3CCC(N4CCN(C)CC4)CC3)c(OC)c2)nc1NC1CCOCC1 [Gilteritinib hemifumarate]; details: 2 µM; K562; 2-18 h
Gilteritinib = compound: CCc1nc(C(N)=O)c(Nc2ccc(N3CCC(N4CCN(C)CC4)CC3)c(OC)c2)nc1NC1CCOCC1 [Gilteritinib]; details: 2 µM; K562; 2-18 h
[6] = compound: CN(C)C(=N)NC(=N)N [Metformin (hydrochloride)]; details: 10 µM; K562; 2-18 h
Metformin = compound: CN(C)C(=N)NC(=N)N [Metformin]; details: 10 µM; K562; 2-18 h
Ribociclib hydrochloride = compound: CN(C)C(=O)c1cc2cnc(Nc3ccc(N4CCNCC4)cn3)nc2n1C1CCCC1 [Ribociclib hydrochloride]; details: 2.5 µM; K562; 2-18 h
[7] = compound: CN(C)C(=O)c1cc2cnc(Nc3ccc(N4CCNCC4)cn3)nc2n1C1CCCC1 [Ribociclib succinate hydrate]; details: 2.5 µM; K562; 2-18 h
Ribociclib succinate = compound: CN(C)C(=O)c1cc2cnc(Nc3ccc(N4CCNCC4)cn3)nc2n1C1CCCC1 [Ribociclib succinate]; details: 10 µM; K562; 2-18 h
Ribociclib = compound: CN(C)C(=O)c1cc2cnc(Nc3ccc(N4CCNCC4)cn3)nc2n1C1CCCC1 [Ribociclib]; details: 10 µM; K562; 2-18 h

Measured: number of time points

DYRK2 (UniProt Q92630)
4: [4]
2: [3]; 2.5 µM
0: Umbralisib | Bucladesine (calcium) | Bucladesine (sodium) | Fingolimod | [2] | Lidocaine | Baricitinib (phosphate) | Baricitinib | [5] | Gilteritinib | [6] | Metformin | Ribociclib hydrochloride | [7] | Ribociclib succinate | Ribociclib
3: Cerdulatinib
1: [1] | [3]; 10 µM

PAK4 (UniProt O96013)
0: Umbralisib | Bucladesine (calcium) | Bucladesine (sodium) | [1] | Fingolimod | [2] | Lidocaine | [3]; 2.5 µM | [3]; 10 µM | Baricitinib (phosphate) | Baricitinib | [4] | Cerdulatinib | [5] | Gilteritinib | [6] | Metformin | Ribociclib hydrochloride | [7] | Ribociclib succinate | Ribociclib

CSNK1D (UniProt P48730)
0: Umbralisib | Bucladesine (calcium) | Bucladesine (sodium) | [1] | Fingolimod | [2] | Lidocaine | [3]; 2.5 µM | [3]; 10 µM | Baricitinib (phosphate) | Baricitinib | Cerdulatinib | [5] | Gilteritinib | [6] | Metformin | Ribociclib hydrochloride | [7] | Ribociclib succinate | Ribociclib
1: [4]

SYK (UniProt P43405)
0: Umbralisib | Bucladesine (calcium) | Bucladesine (sodium) | [1] | Fingolimod | [2] | Lidocaine | [3]; 2.5 µM | [3]; 10 µM | Baricitinib (phosphate) | Baricitinib | [4] | Cerdulatinib | [5] | Gilteritinib | [6] | Metformin | Ribociclib hydrochloride | [7] | Ribociclib succinate | Ribociclib

Taken from the results shown (two entries):
CSNK1D (UniProt P48730)
0: Umbralisib | Bucladesine (calcium) | Bucladesine (sodium) | [1] | Fingolimod | [2] | Lidocaine | [3]; 2.5 µM | [3]; 10 µM | Baricitinib (phosphate) | Baricitinib | Cerdulatinib | [5] | Gilteritinib | [6] | Metformin | Ribociclib hydrochloride | [7] | Ribociclib succinate | Ribociclib
1: [4]

SYK (UniProt P43405)
0: Umbralisib | Bucladesine (calcium) | Bucladesine (sodium) | [1] | Fingolimod | [2] | Lidocaine | [3]; 2.5 µM | [3]; 10 µM | Baricitinib (phosphate) | Baricitinib | [4] | Cerdulatinib | [5] | Gilteritinib | [6] | Metformin | Ribociclib hydrochloride | [7] | Ribociclib succinate | Ribociclib

Continuation.

HER2 (UniProt P04626)
0: Umbralisib | Bucladesine (calcium) | Bucladesine (sodium) | [1] | Fingolimod | [2] | Lidocaine | [3]; 2.5 µM | [3]; 10 µM | Baricitinib (phosphate) | Baricitinib | [5] | Gilteritinib | [6] | Metformin | Ribociclib hydrochloride | [7] | Ribociclib succinate | Ribociclib
2: Cerdulatinib
3: [4]

MAPKAPK2 (UniProt P49137)
0: Umbralisib | Bucladesine (calcium) | Bucladesine (sodium) | [1] | Fingolimod | [2] | Lidocaine | [3]; 2.5 µM | [3]; 10 µM | Baricitinib (phosphate) | Baricitinib | [4] | Cerdulatinib | [5] | Gilteritinib | [6] | Metformin | Ribociclib hydrochloride | [7] | Ribociclib succinate | Ribociclib

MAP2K1 (UniProt Q02750)
0: Umbralisib | Bucladesine (calcium) | Bucladesine (sodium) | [1] | Fingolimod | [2] | Lidocaine | [3]; 2.5 µM | [3]; 10 µM | Baricitinib (phosphate) | Baricitinib | [4] | Cerdulatinib | [5] | Gilteritinib | [6] | Metformin | Ribociclib hydrochloride | [7] | Ribociclib succinate | Ribociclib
